Laboratory results reported in patent publication US20260284208A1, “SYSTEM” (Oxford University Innovation Limited, priority 2023, published 2026).
This continues a long series; more values of the same kind are listed elsewhere.

Test system: library of 8,380 IKZF3 degrons (ZF-eGFP/mCherry reporter) in Jurkat cells
Test: Pooled library screen (FACS, NGS, limma voom LogFC of positive vs negative read counts)
Assay type: cell-based, human
Description: A library of 8,380 IKZF3 degrons was cloned into pLVX-Sprout to create the eGFP/mCherry protein degradation reporter plasmid pool. A lentivirus pool was then generated using the Lenti-X lentiviral vector production method.
Jurkat cells were transduced at a multiplicity of infection of <0.3 with the lentivirus vector library in order to maximise the number of cells with a single integration. Transductions were carried out in 6 well TC-treated cell culture dishes (Falcon) with 3×10^6 cells per well. Cells were incubated for 2 days at 37° C. and 5% CO2 before the supernatant was removed and replaced with fresh media. 6 days post-transduction, mCherry+ cells were isolated via FACS using the FACS Aria Fusion (BD) in a buffer containing PBS (Gibco), 2 mM EDTA (Gibco), 25 mM HEPES (Sigma) and 1% BSA (Sigma). 8 days later, cells were treated with DMSO or a thalidomide analog for 18 hours at 37° C. and 5% CO2. mCherry+GFPlow and NOT(mCherry+GFPlow) cells were sorted by FACS using the FACS Aria Fusion (BD). DMSO treated cells were used to set the mCherry+GFPlow gate and dead cells were excluded from sorting by staining cells with 1 μg/mL DAPI (ThermoFisher). gDNA was isolated using the Maxwell RSC 48 (Promega). gDNA from cells that were unsorted and untreated were also isolated to determine the library representation on the day of compound treatment. Throughout the screen >600× coverage of the library was maintained. 3 biological replicates were carried out with a new transduction taking place each time.
A two-step PCR was used where the first PCR (PCR1) amplified the integrated degron sequence from gDNA and the second PCR (PCR2) added Illumina adaptors and barcodes to permit multiplexing. See Supp F for PCR1 and PCR2 primers. Q5 Hot Start High-Fidelity 2× Master Mix (New England Biolabs) was used for both PCRs. Sufficient gDNA was amplified in PCR1 in order to maintain >600× coverage and amplicons were purified using solid phase reversible immobilization (SPRI) beads (Beckman Coulter). Purified PCR1 products were analysed on the Tapestation 4200 (Agilent) to confirm purity prior to proceeding to PCR2. Sufficient PCR1 product was amplified in PCR2 in order to maintain >600× coverage and amplicons were run on a 2% agarose TAE gel. Target bands were excised and purified using the NucleoSpin Gel and PCR Clean-up Kit (Machery Nagel). Amplicons were analysed on the Tapestation 4200 and quantified using Qubit dsDNA HS kit (ThermoFisher). PCR products were pooled and sequenced as paired-reads on the NovaSeq (Illumina) using a SP2 200 cycles kit (Illumina).
Count distributions, percentage of read mapping, library coverage and replicate correlation per sample were assessed for QC purposes.
To carry out the library screen, we used the same plasmid construct as in our earlier flow cytometry assays, but pooling all 8,380 mutants together into one Jurkat population, ensuring a copy number of one plasmid per cell (FIG. 4B). […] These GFP-negative cells were then separated from the remaining GFP-positive population using fluorescence activated cell sorting (FACS). These two populations were then sequenced and the relative abundance of every mutant in both populations compared to provide a log FC value for each mutant sequence. This value indicated how frequently a sequence is observed in the GFP-negative population relative to the GFP-positive population, and therefore how effective a degron it is for that particular IMID compound.

O=C1CCC(N2C(=O)c3ccc(N4CCOCC4)cc3C2=O)C(=O)N1 (stereo not shown) [B03] was tested, and the B03_logFC (degron 4515 (SEQ ID NO 3620) 46F_47Y_49P_50I_52G_53A_54S_55F_67L) was 3.432, the B03_logFC (degron 4516 (SEQ ID NO 3550) 46F_47Y_49P_50I_52G_53A_54T_55F_67L) was 3.573 and the B03_logFC (degron 4541 (SEQ ID NO 3633) 46F_47Y_49P_50V_52G_53A_54C_55F_67L) was 3.401. For the same compound, the B03_logFC (degron 4546 (SEQ ID NO 3597) 46F_47Y_49P_50V_52G_53A_54H_55F_67L) was 3.485, the B03_logFC (degron 4553 (SEQ ID NO 3522) 46F_47Y_49P_50V_52G_53A_54Q_55F_67L) was 3.652 and the B03_logFC (degron 4556 (SEQ ID NO 3638) 46F_47Y_49P_50V_52G_53A_54T_55F_67L) was 3.381. For the same compound, the B03_logFC (degron 6540 (SEQ ID NO 3575) 46L_47F_49P_50I_52G_53F_54A_55C_67L) was 3.521, the B03_logFC (degron 6541 (SEQ ID NO 3606) 46L_47F_49P_50I_52G_53F_54C_55C_67L) was 3.463 and the B03_logFC (degron 6555 (SEQ ID NO 3558) 46L_47F_49P_50I_52G_53F_54S_55C_67L) was 3.556. It also gave a B03_logFC (degron 6556 (SEQ ID NO 3563) 46L_47F_49P_50I_52G_53F_54T_55C_67L) of 3.545, a B03_logFC (degron 6595 (SEQ ID NO 3595) 46L_47H_49P_50I_52G_53F_54S_55C_67L) of 3.488 and a B03_logFC (degron 6732 (SEQ ID NO 3570) 46L_47R_49P_50I_52G_53F_54P_55C_67L) of 3.536. It also gave a B03_logFC (degron 6775 (SEQ ID NO 3643) 46L_47T_49P_50I_52G_53F_54S_55C_67L) of 3.371, a B03_logFC (degron 6795 (SEQ ID NO 3531) 46L_47V_49P_50I_52G_53F_545_55C_67L) of 3.628 and a B03_logFC (degron 6801 (SEQ ID NO 3589) 46L_47W_49P_50I_52G_53F_54C_55C_67L) of 3.492. It also gave a B03_logFC (degron 6806 (SEQ ID NO 3568) 46L_47W_49P_50I_52G_53F_54H_55C_67L) of 3.537, a B03_logFC (degron 6810 (SEQ ID NO 3642) 46L_47W_49P_50I_52G_53F_54M_55C_67L) of 3.371 and a B03_logFC (degron 6811 (SEQ ID NO 3587) 46L_47W_49P_50I_52G_53F_54N_55C_67L) of 3.498. It also gave a B03_logFC (degron 6813 (SEQ ID NO 3576) 46L_47W_49P_50I_52G_53F_54Q_55C_67L) of 3.516, a B03_logFC (degron 6815 (SEQ ID NO 3551) 46L_47W_49P_50I_52G_53F_54S_55C_67L) of 3.567 and a B03_logFC (degron 6816 (SEQ ID NO 3494) 46L_47W_49P_50I_52G_53F_54T_55C_67L) of 3.712. For the same compound, the B03_logFC (degron 6821 (SEQ ID NO 3555) 46L_47Y_49P_50I_52G_53F_54C_55C_67L) was 3.559, the B03_logFC (degron 6826 (SEQ ID NO 3594) 46L_47Y_49P_50I_52G_53F_54H_55C_67L) was 3.488 and the B03_logFC (degron 6833 (SEQ ID NO 3557) 46L_47Y_49P_50I_52G_53F_54Q_55C_67L) was 3.557. It also gave a B03_logFC (degron 6834 (SEQ ID NO 3634) 46L_47Y_49P_50I_52G_53F_54R_55C_67L) of 3.395, a B03_logFC (degron 6835 (SEQ ID NO 3493) 46L_47Y_49P_50I_52G_53F_54S_55C_67L) of 3.721 and a B03_logFC (degron 6836 (SEQ ID NO 3528) 46L_47Y_49P_50I_52G_53F_54T_55C_67L) of 3.628. The B03_logFC (degron 6837 (SEQ ID NO 3590) 46L_47Y_49P_50I_52G_53F_54V_55C_67L) was 3.492, the B03_logFC (degron 7681 (SEQ ID NO 3636) 46L_47F_49E_50I_52G_53F_54C_55C_67L) was 3.386 and the B03_logFC (degron 7693 (SEQ ID NO 3631) 46L_47F_49E_50I_52G_53F_54Q_55C_67L) was 3.411. The B03_logFC (degron 7694 (SEQ ID NO 3525) 46L_47F_49E_50I_52G_53F_54R_55C_67L) was 3.641, the B03_logFC (degron 7695 (SEQ ID NO 3580) 46L_47F_49E_50I_52G_53F_54S_55C_67L) was 3.511 and the B03_logFC (degron 7696 (SEQ ID NO 3510) 46L_47F_49E_50I_52G_53F_54T_55C_67L) was 3.671. The B03_logFC (degron 7697 (SEQ ID NO 3611) 46L_47F_49E_50I_52G_53F_54V_55C_67L) was 3.453, the B03_logFC (degron 7946 (SEQ ID NO 3598) 46L_47W_49E_50I_52G_53F_54H_55C_67L) was 3.484 and the B03_logFC (degron 7953 (SEQ ID NO 3588) 46L_47W_49E_50I_52G_53F_54Q_55C_67L) was 3.493. It also gave a B03_logFC (degron 7954 (SEQ ID NO 3586) 46L_47W_49E_50I_52G_53F_54R_55C_67L) of 3.499, a B03_logFC (degron 7955 (SEQ ID NO 3479) 46L_47W_49E_50I_52G_53F_54S_55C_67L) of 3.789 and a B03_logFC (degron 7956 (SEQ ID NO 3476) 46L_47W_49E_50I_52G_53F_54T_55C_67L) of 3.795. The B03_logFC (degron 7960 (SEQ ID NO 3585) 46L_47Y_49E_50I_52G_53F_54A_55C_67L) was 3.504, the B03_logFC (degron 7966 (SEQ ID NO 3627) 46L_47Y_49E_50I_52G_53F_54H_55C_67L) was 3.418 and the B03_logFC (degron 7974 (SEQ ID NO 3459) 46L_47Y_49E_50I_52G_53F_54R_55C_67L) was 3.902. The B03_logFC (degron 7976 (SEQ ID NO 3583) 46L_47Y_49E_50I_52G_53F_54T_55C_67L) was 3.508.
